In patent US10627374B2, “LC-MS configuration for purification and detection of analytes having a broad range of hydrophobicites” (COHESIVE TECHNOLOGIES INC., priority 2010, dated 2020):

What was measured:
[1] = sensitivity of electrospray ionization (ESI) relative to APCI
[2] = approximate limit of quantitation (LOQ) by the single-configuration LC-MS method
[3] = LC-MS, Cyclone P clean-up column plus PFP analytical column, ammonium formate buffers
[4] = sensitivity ratio ESI relative to APCI

With `CCCCCc1cc(O)c2c(c1)OC(C)(C)[C@@H]1CCC(C(=O)O)=C[C@@H]21` [11-norDelta-9-THC-COOH] the ESI/APCI [1] was 0.53 and the “Approx [LOQ]” value [2] was 5 ng/mL.
For `C=C1CC[C@H](O)C/C1=C/C=C1\CCC[C@]2(C)[C@@H]([C@H](C)/C=C/[C@H](C)C(C)(C)O)CC[C@@H]12` [25OH vitamin D2, 25-hydroxyvitamin D2], the ESI/APCI [1] was 8.81 and the “Approx [LOQ]” value [2] was 10 ng/mL.
In the case of `C=C1CC[C@H](O)C/C1=C/C=C1\CCC[C@]2(C)[C@@H]([C@H](C)CCCC(C)(C)O)CC[C@@H]12` [25OH vitamin D3, 25-hydroxyvitamin D3], the ESI/APCI [1] is reported as 3.32 and the “Approx [LOQ]” value [2] is reported as 10 ng/mL.
For `CC(N)Cc1ccccc1` (stereo not shown) [Amphetamine], the “Approx [LOQ]” value [2] was 50 ng/mL.
For `C[C@]12CCC(=O)C=C1CC[C@@H]1[C@@H]2CC[C@]2(C)C(=O)CC[C@@H]12` [Androstenedione], the “Approx [LOQ]” value [2] was 0.01 ng/mL.
With `CN1[C@H]2CC[C@@H]1[C@@H](C(=O)O)[C@@H](OC(=O)c1ccccc1)C2` [Benzoylecgonine] the ESI/APCI [1] was 12.2 and the “Approx [LOQ]” value [2] was 0.05 ng/mL.
In the case of `CS(=O)(=O)OCCCCOS(C)(=O)=O` [Busulfan], the “Approx [LOQ]” value [2, 3] is reported as 1 ng/mL.
For `COc1ccc2c3c1O[C@H]1[C@@H](O)C=C[C@H]4[C@@H](C2)N(C)CC[C@@]341` [Codeine], the “Approx [LOQ]” value [2] was 2 ng/mL.
In the case of `C[C@]12CCC(=O)C=C1CC[C@@H]1[C@@H]2[C@@H](O)C[C@@]2(C)[C@H]1CC[C@]2(O)C(=O)CO` [Cortisol (hydrocortisone)], the ESI/APCI [1, 4] is reported as 54.5 and the “Approx [LOQ]” value [2, 3] is reported as 0.05 ng/mL.
With `C[C@]12CCC(=O)C=C1CC[C@@H]1[C@@H]2C(=O)C[C@@]2(C)[C@H]1CC[C@]2(O)C(=O)CO` [Cortisone] the “Approx [LOQ]” value [2] was 0.05 ng/mL.
With `CCCCCc1cc(O)c2c(c1)OC(C)(C)[C@@H]1CCC(C)=C[C@@H]21` [Delta9-THC] the ESI/APCI [1] was 0.75 and the “Approx [LOQ]” value [2] was 5 ng/mL.
For `COc1ccc2c3c1O[C@H]1[C@@H](O)CC[C@H]4[C@@H](C2)N(C)CC[C@@]341` [Dihydrocodeine], the “Approx [LOQ]” value [2] was 0.2 ng/mL.
For `CC(=O)O[C@@]12CO[C@@H]1C[C@H](O)[C@@]1(C)C(=O)[C@H](O)C3=C(C)[C@@H](OC(=O)[C@H](O)[C@@H](NC(=O)OC(C)(C)C)c4ccccc4)C[C@@](O)([C@@H](OC(=O)c4ccccc4)[C@H]21)C3(C)C` [Docetaxel], the “Approx [LOQ]” value [2, 3] was 0.5 ng/mL.
With `CO[C@H]1C[C@@H]2CC[C@@H](C)[C@@](O)(O2)C(=O)C(=O)N2CCCC[C@H]2C(=O)O[C@H]([C@H](C)C[C@@H]2CC[C@@H](OCCO)[C@H](OC)C2)CC(=O)[C@H](C)/C=C(\C)[C@@H](O)[C@@H](OC)C(=O)[C@H](C)C[C@H](C)/C=C/C=C/C=C/1C` [Everolimus] the ESI/APCI [1, 4] was 29.2 and the “Approx [LOQ]” value [2, 3] was 0.05 ng/mL.
For `COc1ccc2c3c1O[C@H]1C(=O)CC[C@H]4[C@@H](C2)N(C)CC[C@]314` [Hydrocodone], the “Approx [LOQ]” value [2] was 2 ng/mL.
For `CC(=O)[C@@]1(O)CC[C@H]2[C@@H]3CCC4=CC(=O)CC[C@]4(C)[C@H]3CC[C@@]21C` [Hydroxyprogesterone], the “Approx [LOQ]” value [2] was 0.01 ng/mL.
With `CC(N)Cc1ccc2c(c1)OCO2` (stereo not shown) [MDA] the “Approx [LOQ]” value [2] was 50 ng/mL.
With `CNC(C)Cc1ccc2c(c1)OCO2` (stereo not shown) [MDMA] the “Approx [LOQ]” value [2] was 50 ng/mL.
For `CCC(=O)C(CC(C)N(C)C)(c1ccccc1)c1ccccc1` (stereo not shown) [Methadone], the ESI/APCI [1] was 14.5 and the “Approx [LOQ]” value [2] was 5 ng/mL.
With `CN[C@@H](C)Cc1ccccc1` [Methamphetamine] the “Approx [LOQ]” value [2] was 50 ng/mL.
For `CN(Cc1cnc2nc(N)nc(N)c2n1)c1ccc(C(=O)N[C@@H](CCC(=O)O)C(=O)O)cc1` [Methotrexate], the “Approx [LOQ]” value [2, 3] was 0.5 ng/mL.
For `CN1CC[C@]23c4c5ccc(O)c4O[C@H]2[C@@H](O)C=C[C@H]3[C@H]1C5` [Morphine], the “Approx [LOQ]” value [2] was 20 ng/mL.
For `COc1ccc2c3c1O[C@H]1[C@@H](O)C=C[C@H]4[C@@H](C2)NCC[C@@]341` [Norcodeine], the “Approx [LOQ]” value [2] was 2 ng/mL.
For `COc1ccc2c3c1O[C@H]1C(=O)CC[C@@]4(O)[C@@H](C2)NCC[C@]314` [Noroxycodone], the “Approx [LOQ]” value [2] was 2 ng/mL.
In the case of `COc1ccc2c3c1O[C@H]1C(=O)CC[C@@]4(O)[C@@H](C2)N(C)CC[C@]314` [Oxycodone], the “Approx [LOQ]” value [2] is reported as 2 ng/mL.
In the case of `CN1CC[C@]23c4c5ccc(O)c4O[C@H]2C(=O)CC[C@@]3(O)[C@H]1C5` [Oxymorphone], the “Approx [LOQ]” value [2] is reported as 20 ng/mL.
For `c1ccc(C2(N3CCCCC3)CCCCC2)cc1` [Phencyclidine], the “Approx [LOQ]” value [2] was 0.5 ng/mL.
In the case of `CC(=O)[C@H]1CC[C@H]2[C@@H]3CCC4=CC(=O)CC[C@]4(C)[C@H]3CC[C@]12C` [Progesterone], the “Approx [LOQ]” value [2, 3] is reported as 0.01 ng/mL.
For `C=CC[C@@H]1/C=C(\C)C[C@H](C)C[C@H](OC)[C@H]2O[C@@](O)(C(=O)C(=O)N3CCCC[C@H]3C(=O)O[C@H](/C(C)=C/[C@@H]3CC[C@@H](O)[C@H](OC)C3)[C@H](C)[C@@H](O)CC1=O)[C@H](C)C[C@@H]2OC` [Tacrolimus], the ESI/APCI [1, 4] was 21.7 and the “Approx [LOQ]” value [2, 3] was 0.05 ng/mL.
With `CC[C@@H](c1cccc(O)c1)[C@@H](C)CN(C)C` [Tapentadol] the ESI/APCI [1] was 7.1 and the “Approx [LOQ]” value [2] was 0.5 ng/mL.
With `C[C@]12CC[C@H]3[C@@H](CCC4=CC(=O)CC[C@@]43C)[C@@H]1CC[C@@H]2O` [Testosterone] the ESI/APCI [1] was 16.4 and the “Approx [LOQ]” value [2] was 0.05 ng/mL.
In the case of `COc1cccc(C2(O)CCCCC2CN(C)C)c1` (stereo not shown) [Tramadol], the “Approx [LOQ]” value [2] is reported as 5 ng/mL.

Like-named read-outs stand apart in the source and are kept apart here.
